The values below come from the supplement of paper PMC4635364.

Structures can show the parent of a compound that is named as a salt. The list shows a part of the results. Single values are uncertain here, since repeats match poorly.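 Human fetal ventral-midbrain neural progenitor line ReNCell VM, differentiated without mitogens. Images stained for doublecortin (early neurons) or tyrosine hydroxylase (dopaminergic neurons) were scored by blinded raters against untreated wells (0 = no change). Repeats and both raters were averaged, and compounds averaging 2 or higher were picked as hits for retesting.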

This experiment relates to ReNCell VM. The experiment in a line: dopaminergic neuron differentiation score (TH+ cell fraction vs untreated, manual image score) (score (0 to 3)); higher = more TH+ dopaminergic neuron differentiation. The following applies: library: Tocriscreen; 2 uM; 4 weeks; BDNF 10 ng/ml + GDNF 10 ng/ml.
Regarding `O=C(O)c1cc(=O)c2ccccc2[nH]1` [Kynurenic acid], the “dopaminergic neuron differentiation score” value is active: 3. In the case of `CN1CC(=O)N=C1NC(=O)Nc1cccc(Cl)c1` [Fenobam], the “dopaminergic neuron differentiation score” value is inactive: 0. As for `O=C(O)c1cc(=O)c2c(Cl)cc(Cl)cc2[nH]1` [5,7-Dichlorokynurenic acid], the figure is inactive: 1; as for `COc1cc2c(cc1C(F)(F)F)N(C(=O)Nc1cc(F)cc(-c3cccnc3)c1)CC2`, inactive: 0.

Regarding `COc1ccc(Cl)cc1NC(=O)Nc1cc(C)nc2ccccc12`, the “dopaminergic neuron differentiation score” value is inactive: 0. For the compound `CC(C(=O)O)c1ccc(-c2ccccc2)c(F)c1` (configuration not stated) [Flurbiprofen], the “dopaminergic neuron differentiation score” value is inactive: 0.

Consider `O=c1c(O)c(-c2ccc(O)cc2)oc2cc(O)cc(O)c12` [Kaempferol], for which the “dopaminergic neuron differentiation score” value was inactive: 0. As for `CC1=NN(c2ccccc2)C(=O)C1`, the figure is inactive: 0; as for `O=C(O)/C=C/c1ccc(Cn2ccnc2)cc1` [Ozagrel hydrochloride], inactive: 0; as for `O=C(O)c1cccnc1C(=O)O` [Quinolinic acid], inactive: 0.

As to `CCOc1ccccc1OC(c1ccccc1)C1CNCCO1` (configuration not stated) [Reboxetine mesylate], the “dopaminergic neuron differentiation score” value is inactive: 0. As for `Oc1cc2c(cc1O)CN(C(=S)NCCc1ccc(Cl)cc1)CCC2` [Capsazepine], the figure is inactive: 0; as for `CC(=O)NNC(=O)N1Cc2ccccc2Oc2ccc(Cl)cc21`, inactive: 0.

`CCCCCCCCCCCCCCCC(=O)NCCO` [Palmitoylethanolamide]: the “dopaminergic neuron differentiation score” value is inactive: 0. As for `O=C1c2ccccc2S(=O)(=O)N1CCCCN1CCN(c2ncccn2)CC1` [Ipsapirone], the figure is inactive: 0. Turning to `O=C1Cc2c([nH]c3ccc(Br)cc23)-c2ccccc2N1` [Kenpaullone], the “dopaminergic neuron differentiation score” value was inactive: 0. As for `Cc1ccc([N+](=O)[O-])cc1S(=O)(=O)N(C)C`, the figure is inactive: 0; as for `CN1CC2c3ccccc3Oc3ccc(Cl)cc3C2C1` (configuration not stated) [Asenapine maleate], inactive: 0; as for `CC[C@H](C)C(=O)O[C@H]1C[C@@H](C)C=C2C=C[C@H](C)[C@H](CC[C@@H]3C[C@@H](O)CC(=O)O3)[C@H]21` [Lovastatin], inactive: 0. As to `CCN1CCC[C@H]1CNC(=O)c1c(O)c(Cl)cc(Cl)c1OC` [Raclopride], the “dopaminergic neuron differentiation score” value is inactive: 0. As for `CC(=Cc1ccc(C(=O)O)cc1)c1ccc2c(c1)C(C)(C)CCC2(C)C`, the “dopaminergic neuron differentiation score” value is inactive: 0.

For the compound `CC(C)(C(=O)O)c1ccc(C(O)CCCN2CCC(C(O)(c3ccccc3)c3ccccc3)CC2)cc1` (configuration not stated) [Fexofenadine hydrochloride], the “dopaminergic neuron differentiation score” value is inactive: 0.
